In the supplement of paper PMC9433722 one finds cell viability data, which are given here for 29 molecules.

Each structure is given as a SMILES string. Structures can show the parent of a compound that is named as a salt. The list shows a part of the results. Single values are uncertain, as repeats are few or missing.

In one assay the test system is Saos-2. Briefly: cell viability (CCK-8) relative to DMSO control (% of control); higher = less cytotoxic. Particulars: 10 µM; 48 h.
A further assay relates to U2OS. The assay is described as above. Particulars: 10 µM; 48 h.

As for `CCOC(=O)[C@H](CCc1ccccc1)N[C@@H](C)C(=O)N1Cc2ccccc2C[C@H]1C(=O)O` [Quinapril·HCl], the cell viability was determined as 66.3 in the assay with Saos-2 and 96.8 in the assay on U2OS.
With `CN(C)[C@@H]1C(O)=C(C(N)=O)C(=O)[C@@]2(O)C(O)=C3C(=O)c4c(O)ccc(Cl)c4[C@@H](O)[C@H]3C[C@@H]12` [Demeclocycline·HCl], the cell viability in the assay on Saos-2 came to 108; with U2OS it was 97.3.
Taken in the same sequence, the figures for `CCCCCCCCc1ccc(CCC(N)(CO)CO)cc1` were 15.1 and 75.
In the same order, the values of `CC(C)NCC(O)COc1cccc2ccccc12` (stereo not drawn) [Propranolol·HCl] are 67.2 and 116.
Taken in the same sequence, the figures for `O=C1CCC(N2C(=O)c3ccccc3C2=O)C(=O)N1` (stereo not drawn) [Thalidomide] were 69.3 and 94.5.
Consider `CN(CCOc1ccc(NS(C)(=O)=O)cc1)CCc1ccc(NS(C)(=O)=O)cc1` [Dofetilide], for which the cell viability with Saos-2 is 57.2; with U2OS it was 115.
Regarding `COC(=O)CCc1ccc(OCC(O)CNC(C)C)cc1` (stereo not drawn) [Esmolol], the cell viability with Saos-2 was 69.5; in the assay with U2OS, 101.
As to `CN(C)CCOC(c1ccccc1)c1ccccc1.Cn1c(=O)c2[nH]c(Cl)nc2n(C)c1=O` [Dimenhydrinate], the cell viability in the assay on Saos-2 is 112; in the assay on U2OS, 107.
In the same order, the values of `CCC(C)n1ncn(-c2ccc(N3CCN(c4ccc(OCC5COC(Cn6cncn6)(c6ccc(Cl)cc6Cl)O5)cc4)CC3)cc2)c1=O` (stereo not drawn) [Itraconazole] are 62.7 and 65.8.
In the same order, the values of `N=C(N)c1ccc(OCCCCCOc2ccc(C(=N)N)cc2)cc1` [Pentamidine Isethionate] are 90.9 and 128.
In the same order, the values of `CN1CC(=O)N2[C@H](c3ccc4c(c3)OCO4)c3[nH]c4ccccc4c3C[C@@H]2C1=O` [Tadalafil] are 109 and 104.
Turning to `CCN(CC)CCNC(=O)c1c(C)[nH]c(/C=C2\C(=O)Nc3ccc(F)cc32)c1C` [Sunitinib . malate], the cell viability came out at 25.5 with Saos-2 and 53.2 with U2OS.
In the same order, the values of `CO/N=C(\C(=O)N[C@@H]1C(=O)N2C(C(=O)OCOC(=O)C(C)(C)C)=C(/C=C\c3scnc3C)CS[C@H]12)c1csc(N)n1` [Cefditoren Pivoxil] are 114 and 65.8.
Regarding `Cc1cn(-c2cc(NC(=O)c3ccc(C)c(Nc4nccc(-c5cccnc5)n4)c3)cc(C(F)(F)F)c2)cn1` [Nilotinib], the results for the cell viability in the assay on Saos-2 and in the assay with U2OS were 66 and 97.5, respectively.
In the same order, the values of `CC(=O)[C@]1(O)Cc2c(O)c3c(c(O)c2[C@@H](O[C@H]2C[C@H](N)[C@H](O)[C@H](C)O2)C1)C(=O)c1ccccc1C3=O` [Idarubicin . Hydrochloride] are 19.2 and 23.6.
With `Cc1nc2n(c(=O)c1CCN1CCC(c3noc4cc(F)ccc34)CC1)CCCC2` [Risperidone], the cell viability in the assay with Saos-2 is 60.9; in the assay on U2OS, 107.
Turning to `C[N+]1(C)CCC(OC(=O)C(O)(c2ccccc2)C2CCCC2)C1` (stereo not drawn) [Glycopyrrolate Iodide], the cell viability in the assay with Saos-2 was 108; in the assay with U2OS it was 87.5.
Taken in the same sequence, the figures for `COc1cccc2c1C(=O)c1c(O)c3c(c(O)c1C2=O)C[C@@](O)(C(C)=O)C[C@@H]3O[C@H]1C[C@H](N)[C@H](O)[C@H](C)O1` [Daunorubicin . hydrochloride] were 16.2 and 18.3.
On to `CCc1c2c(nc3ccc(OC(=O)N4CCC(N5CCCCC5)CC4)cc13)-c1cc3c(c(=O)n1C2)COC(=O)[C@]3(O)CC` [Irinotecan . hydrochloride . trihydrate], for which the cell viability in the assay with Saos-2 was 52.6; in the assay on U2OS it was 84.2.
Taken in the same sequence, the figures for `O=c1[nH]c(=O)n([C@H]2C[C@H](O)[C@@H](CO)O2)cc1I` [Idoxuridine] were 67.8 and 99.1.
Taken in the same sequence, the figures for `CN1[C@@H]2CC[C@H]1C[C@@H](OC(c1ccccc1)c1ccccc1)C2` [Benztropine . mesylate] were 114 and 109.
Taken in the same sequence, the figures for `C[C@H]1C[C@H]2[C@@H]3CCC4=CC(=O)C=C[C@]4(C)[C@@]3(F)[C@@H](O)C[C@]2(C)[C@@]1(O)C(=O)CO` [Betamethasone] were 73.4 and 105.
On to `Cc1nc2n(c(=O)c1CCN1CCC(c3noc4cc(F)ccc34)CC1)CCCC2O` (stereo not drawn) [Paliperidone], for which the cell viability in the assay on Saos-2 is 107; with U2OS, 106.
For the molecule `NC(=O)N1c2ccccc2CC(=O)c2ccccc21` [Oxcarbazepine], the cell viability came out at 66.9 with Saos-2 and 94.6 with U2OS.
Taken in the same sequence, the figures for `CN/C(=N\CCSCc1nc[nH]c1C)NC#N` [Cimetidine] were 60.2 and 114.
In the same order, the values of `CNCCCC12CCC(c3ccccc31)c1ccccc12` [Maprotiline·HCl] are 52.1 and 110.
Taken in the same sequence, the figures for `CN(C)c1nc(N(C)C)nc(N(C)C)n1` [Altretamine] were 62 and 110.
Take `OC[C@H]1O[C@@H](n2cnc3c2N=CNC[C@H]3O)C[C@@H]1O` [Pentostatin]: the cell viability with Saos-2 and in the assay on U2OS was 107 each time.
As for `CC(C)NCC(O)COc1ccc(CC(N)=O)cc1` (stereo not drawn) [Atenolol], the cell viability was found to be 68.7 with Saos-2 and 103 with U2OS.
